Laboratory results reported in patent US4356165A (Burroughs Wellcome Co., priority 1980, dated 1982).

system: anticompound 2 sera, and anti-compound 3 sera; assay: RIA of bupropion using 125I-labeled bupropion competitors (sensitivity), anti-compound 2 sera and anti-compound 3 sera; assay type: binding; details: with anti-compound 2 sera or anti-compound 3 sera; FIG. 2

| SMILES | RIA sensitivity relative to the compound 10 (3H bupropion) assay system |
| --- | --- |
| CC(NC(C)(C)C)C(=O)c1ccc(OCC(=O)NCCc2ccc(O)c([125I])c2)c(Cl)c1 (stereo not drawn) [Compound 7, α-t-Butylamino-3-chloro-4-carbomethoxypropiophenone-^125 I-tyramine amide] | sensitivity approximately equal to that obtained with the compound 10 system |
| CC(NC(C)(C)C)C(=O)c1ccc(CCCOC(=O)CCC(=O)NCCc2ccc(O)c([125I])c2)c(Cl)c1 (stereo not drawn) [Compound 8, α-t-Butylamino-3-chloro-4-γ-hydroxypyropylpropiophenone-hemisuccinate-^125 I-tyramine amide] | sensitivity approximately equal to that obtained with the compound 10 system |
| CC(NC(C)(C)C)C(=O)c1ccc(O)c([125I])c1 (stereo not drawn) [Compound 9, ^125 I-α-t-Butylamino-3-iodo-4-hydroxypropiophenone] | approximately ten times more sensitive than the compound 10 (^3 H bupropion) assay system |
